# Assay results reported in the supplement of paper PMC8728848.
# The other results are listed elsewhere or left out.
# B1: Adiponectin (Rattus norvegicus), Q8K3R4 (protein)
# chain: MLLLQALLFLLILPSHEGITATEGPGALVPPPKETCAGWMAGIPGYPGHNGIPGRDGRDGTPGEKGEKGDAGVLGPKGDPGDAGMTGAEGPRGFPGTPGRKGEPGEAAYMYHSAFSVGLETRVTVPNVPIRFTKIFYNQQNHYDGSTGKFHCNIPGLYYFSYHITVYMKDVKVSLFKKDKAVLFTYDQYQEKNVDQASGSMLLHLEVGDQVWLQVYGEGDNNGLYADNVNDSTFTGFLLYHDTN
# Assays:
# Test in all cases: glycan array binding signal (z-score within array); higher = stronger binding
# Conditions in all cases: glycan notation: IUPAC condensed, linker removed
# Glc(a1-6)Glc(a1-6)Glc = target: Glc(a1-6)Glc(a1-6)Glc
# In short: (§1)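 The Consortium for Functional Glycomics database supplied 3228 glycan arrays, of which those lacking an available protein sequence were dropped. The binding signal, a within-array Z-score, was averaged across arrays of the same protein sequence and across linkers. Negative scores can be read as non-binding.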
# Glc(b1-4)Glc = target: Glc(b1-4)Glc
# In short: as §1
# Glc(b1-6)Glc = target: Glc(b1-6)Glc
# In short: as §1
# GlcA(b1-3)Gal = target: GlcA(b1-3)Gal
# In short: as §1
# GlcA(b1-3)GlcNAc = target: GlcA(b1-3)GlcNAc
# In short: as §1
# GlcA(b1-6)Gal = target: GlcA(b1-6)Gal
# In short: as §1
# [1] = target: GlcNAc(a1-3)Gal(b1-4)GlcNAc
# In short: as §1
# [2] = target: GlcNAc(a1-4)Gal(b1-3)GlcNAc
# In short: as §1
# [3] = target: GlcNAc(a1-4)Gal(b1-4)GalNAc
# In short: as §1
# [4] = target: GlcNAc(a1-4)Gal(b1-4)GlcNAc
# In short: as §1
# [5] = target: GlcNAc(a1-4)Gal(b1-4)GlcNAc(b1-3)Gal(b1-4)Glc
# In short: as §1
# [6] = target: GlcNAc(a1-4)Gal(b1-4)GlcNAc(b1-3)Gal(b1-4)GlcNAc
# In short: as §1
# [7] = target: GlcNAc(a1-4)Gal(b1-4)GlcNAc(b1-3)Gal(b1-4)GlcNAc(b1-3)Gal(b1-4)GlcNAc
# In short: as §1
# [8] = target: GlcNAc(a1-4)Gal(b1-4)GlcNAc(b1-3)Gal(b1-4)[Fuc(a1-3)]GlcNAc(b1-3)Gal(b1-4)[Fuc(a1-3)]GlcNAc
# In short: as §1
# [9] = target: GlcNAc(a1-6)Gal(b1-4)GlcNAc
# In short: as §1
# [10] = target: GlcNAc(b1-2)Gal(b1-3)GalNAc
# In short: as §1
# [11] = target: GlcNAc(b1-2)Man(a1-3)[GlcNAc(b1-2)Man(a1-6)]Man(b1-4)GlcNAc(b1-4)GlcNAc
# In short: as §1
# [12] = target: GlcNAc(b1-2)Man(a1-3)[GlcNAc(b1-2)Man(a1-6)]Man(b1-4)GlcNAc(b1-4)[Fuc(a1-6)]GlcNAc
# In short: as §1
# GlcNAc(b1-3)Gal = target: GlcNAc(b1-3)Gal
# In short: as §1
# [13] = target: GlcNAc(b1-3)Gal(b1-3)GalNAc
# In short: as §1
# GlcNAc(b1-3)Gal(b1-4)Glc = target: GlcNAc(b1-3)Gal(b1-4)Glc
# In short: as §1
# [14] = target: GlcNAc(b1-3)Gal(b1-4)GlcNAc
# In short: as §1
# [15] = target: GlcNAc(b1-3)Gal(b1-4)GlcNAc(b1-3)Gal(b1-4)GlcNAc
# In short: as §1
# GlcNAc(b1-3)GalNAc = target: GlcNAc(b1-3)GalNAc
# In short: as §1
# GlcNAc(b1-3)Man = target: GlcNAc(b1-3)Man
# In short: as §1
# [16] = target: GlcNAc(b1-3)[GlcNAc(b1-4)][GlcNAc(b1-6)]GlcNAc
# In short: as §1
# [17] = target: GlcNAc(b1-3)[GlcNAc(b1-6)]Gal(b1-4)GlcNAc
# In short: as §1
# [18] = target: GlcNAc(b1-3)[GlcNAc(b1-6)]GalNAc
# In short: as §1
# [19] = target: GlcNAc(b1-4)Gal(b1-4)GlcNAc
# In short: as §1
# GlcNAc(b1-4)GlcNAc = target: GlcNAc(b1-4)GlcNAc
# In short: as §1
# [20] = target: GlcNAc(b1-4)GlcNAc(b1-4)GlcNAc
# In short: as §1
# [21] = target: GlcNAc(b1-4)GlcNAc(b1-4)GlcNAc(b1-4)GlcNAc(b1-4)GlcNAc
# In short: as §1
# [22] = target: GlcNAc(b1-4)GlcNAc(b1-4)GlcNAc(b1-4)GlcNAc(b1-4)GlcNAc(b1-4)GlcNAc
# In short: as §1
# [23] = target: GlcNAc(b1-4)[GlcNAc(b1-6)]GalNAc
# In short: as §1
# [24] = target: GlcNAc(b1-6)Gal(b1-4)GlcNAc
# In short: as §1
# GlcNAc(b1-6)GalNAc = target: GlcNAc(b1-6)GalNAc
# In short: as §1
# GlcNAc3Prop(b1-4)GlcNAc = target: GlcNAc3Prop(b1-4)GlcNAc
# In short: as §1
# [25] = target: GlcNAc6S(b1-3)Gal(b1-4)GlcNAc
# In short: as §1
# Kdn(a2-3)Gal(b1-3)GalNAc = target: Kdn(a2-3)Gal(b1-3)GalNAc
# In short: as §1
# Kdn(a2-3)Gal(b1-3)GlcNAc = target: Kdn(a2-3)Gal(b1-3)GlcNAc
# In short: as §1
# Kdn(a2-3)Gal(b1-4)Glc = target: Kdn(a2-3)Gal(b1-4)Glc
# In short: as §1
# Kdn(a2-3)Gal(b1-4)GlcNAc = target: Kdn(a2-3)Gal(b1-4)GlcNAc
# In short: as §1
# [26] = target: Kdn(a2-3)Gal(b1-4)[Fuc(a1-3)]GlcNAc
# In short: as §1
# Kdn(a2-6)Gal(b1-4)GlcNAc = target: Kdn(a2-6)Gal(b1-4)GlcNAc
# In short: as §1
# [27] = target: Man(a1-2)Man(a1-2)Man(a1-3)Man
# In short: as §1
binder,measurement,setting,value
B1,glycan array binding signal (z-score),Glc(a1-6)Glc(a1-6)Glc,-1.2
same,glycan array binding signal (z-score),Glc(b1-4)Glc,-0.947
same,glycan array binding signal (z-score),Glc(b1-6)Glc,-0.479
same,glycan array binding signal (z-score),GlcA(b1-3)Gal,0.328
same,glycan array binding signal (z-score),GlcA(b1-3)GlcNAc,-0.577
same,glycan array binding signal (z-score),GlcA(b1-6)Gal,-0.389
same,glycan array binding signal (z-score),[1],-0.969
same,glycan array binding signal (z-score),[2],-0.476
same,glycan array binding signal (z-score),[3],-0.534
same,glycan array binding signal (z-score),[4],-0.064
same,glycan array binding signal (z-score),[5],-0.988
same,glycan array binding signal (z-score),[6],-1.28
same,glycan array binding signal (z-score),[7],-0.58
same,glycan array binding signal (z-score),[8],-1.1
same,glycan array binding signal (z-score),[9],-0.43
same,glycan array binding signal (z-score),[10],-0.35
same,glycan array binding signal (z-score),[11],1.15
same,glycan array binding signal (z-score),[12],-0.628
same,glycan array binding signal (z-score),GlcNAc(b1-3)Gal,-1.05
same,glycan array binding signal (z-score),[13],0.75
same,glycan array binding signal (z-score),GlcNAc(b1-3)Gal(b1-4)Glc,0.226
same,glycan array binding signal (z-score),[14],-0.409
same,glycan array binding signal (z-score),[15],0.342
same,glycan array binding signal (z-score),GlcNAc(b1-3)GalNAc,-0.902
same,glycan array binding signal (z-score),GlcNAc(b1-3)Man,0.039
same,glycan array binding signal (z-score),[16],-0.82
same,glycan array binding signal (z-score),[17],-0.643
same,glycan array binding signal (z-score),[18],-0.505
same,glycan array binding signal (z-score),[19],-0.325
same,glycan array binding signal (z-score),GlcNAc(b1-4)GlcNAc,0.577
same,glycan array binding signal (z-score),[20],4.87
same,glycan array binding signal (z-score),[21],0.358
same,glycan array binding signal (z-score),[22],-1
same,glycan array binding signal (z-score),[23],-0.632
same,glycan array binding signal (z-score),[24],-0.362
same,glycan array binding signal (z-score),GlcNAc(b1-6)GalNAc,-0.414
same,glycan array binding signal (z-score),GlcNAc3Prop(b1-4)GlcNAc,-0.901
same,glycan array binding signal (z-score),[25],-0.358
same,glycan array binding signal (z-score),Kdn(a2-3)Gal(b1-3)GalNAc,-0.322
same,glycan array binding signal (z-score),Kdn(a2-3)Gal(b1-3)GlcNAc,-0.271
same,glycan array binding signal (z-score),Kdn(a2-3)Gal(b1-4)Glc,0.244
same,glycan array binding signal (z-score),Kdn(a2-3)Gal(b1-4)GlcNAc,-0.171
same,glycan array binding signal (z-score),[26],-0.283
same,glycan array binding signal (z-score),Kdn(a2-6)Gal(b1-4)GlcNAc,0.195
same,glycan array binding signal (z-score),[27],0.004

# Four entries from above, set out differently:
binder | measurement | setting | value
B1 | glycan array binding signal (z-score) | [8] | -1.1
same | glycan array binding signal (z-score) | [16] | -0.82
same | glycan array binding signal (z-score) | [20] | 4.87
same | glycan array binding signal (z-score) | GlcNAc(b1-6)GalNAc | -0.414
